Laboratory results taken from article PMC7251110.

The chains behind the UniProt entries cited, without tags or fusion partners. Where a name states a change or a piece, a line headed by the entry shows the natural chain unless it says otherwise.
UniProt Q9H8M2: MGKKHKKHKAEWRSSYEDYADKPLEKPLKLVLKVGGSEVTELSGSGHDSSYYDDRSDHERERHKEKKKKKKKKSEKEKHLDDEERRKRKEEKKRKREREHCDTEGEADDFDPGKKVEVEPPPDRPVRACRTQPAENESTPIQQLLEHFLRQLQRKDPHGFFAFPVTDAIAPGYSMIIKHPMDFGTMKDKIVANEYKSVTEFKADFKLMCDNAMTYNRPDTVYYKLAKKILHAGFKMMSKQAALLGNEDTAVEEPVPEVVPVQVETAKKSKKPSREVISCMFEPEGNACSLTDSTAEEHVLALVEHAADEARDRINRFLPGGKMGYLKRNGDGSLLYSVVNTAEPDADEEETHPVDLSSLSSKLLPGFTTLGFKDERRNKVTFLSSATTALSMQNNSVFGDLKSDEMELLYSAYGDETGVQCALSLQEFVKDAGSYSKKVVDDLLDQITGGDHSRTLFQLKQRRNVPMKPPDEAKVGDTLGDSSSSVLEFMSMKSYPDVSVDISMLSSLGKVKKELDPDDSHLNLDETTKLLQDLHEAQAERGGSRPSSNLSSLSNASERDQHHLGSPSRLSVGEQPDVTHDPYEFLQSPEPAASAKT
UniProt Q06609: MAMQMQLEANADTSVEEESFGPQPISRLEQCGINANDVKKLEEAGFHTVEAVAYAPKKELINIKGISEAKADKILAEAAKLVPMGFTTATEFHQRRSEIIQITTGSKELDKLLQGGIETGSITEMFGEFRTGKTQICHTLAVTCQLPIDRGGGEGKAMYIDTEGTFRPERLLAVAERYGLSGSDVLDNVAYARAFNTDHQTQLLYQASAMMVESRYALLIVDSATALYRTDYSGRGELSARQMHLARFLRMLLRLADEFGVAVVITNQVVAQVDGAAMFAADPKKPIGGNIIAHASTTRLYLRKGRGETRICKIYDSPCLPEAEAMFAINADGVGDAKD

Molecular target: HA-tagged BRD9 with a deletion of the bromodomain (∆-Bromo) (UniProt Q9H8M2)
Assay: co-IP; 293T cells transfected with HA-BRD9 constructs, with or without 10-Gy IR, anti-HA beads, blots for RAD51 and RAD54; NETN buffer, 4 °C

binding: binds
Substance: RAD51 (detected with anti-RAD51 antibody in cell lysates) (from UniProt Q06609 1-339)

Results are given in words; binding and its absence hold for the method and conditions named. In cells and extracts the contact can be indirect. Binding calls can cover weak binding; strength is not graded here.
